According to patent US20220409751A1 (NORTHSTAR MEDICAL TECHNOLOGIES, published 2022):
No constants are given. Whether binding was seen depends on the method and setting. Some results given as binding are weak or reduced against the parent protein; the word gives no strength.

Amino acid sequences for entries named in this document (tags omitted). Residues count along the entry.
UniProt Q03405, residues 23-305: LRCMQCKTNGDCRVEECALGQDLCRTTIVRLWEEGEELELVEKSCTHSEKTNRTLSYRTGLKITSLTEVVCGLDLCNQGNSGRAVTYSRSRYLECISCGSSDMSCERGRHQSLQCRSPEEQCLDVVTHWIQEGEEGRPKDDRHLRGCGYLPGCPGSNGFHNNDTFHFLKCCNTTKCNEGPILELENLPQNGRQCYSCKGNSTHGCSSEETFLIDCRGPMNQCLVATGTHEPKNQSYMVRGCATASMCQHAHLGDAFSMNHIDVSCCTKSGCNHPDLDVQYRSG

B1: HE ™ ATN-1 (antibody, IgG1, V domains shown)
VH: EVQLVQSGPEVVKTGASVKISCKASGYSFTSYYMHWVKQAHGQGLEWIGEINPYNGGASYNQKIKGRATFTVDTSTRTAYMEFSSLRSEDTAVYYCARSIYGHSVLDYWGQGTLVTVSS
VL: DVVMTQSPLSLSVTIGEPASISCRSSQSLLDSDGKTYLNWLLQKPGQSPKRLIYLVSKRDSGVPDRFSGSGSGTDFTLKISRVEAEDVGVYYCWQGTHFPLTFGQGTKLEIK
notes: V regions cloned into transient expression vectors with human gamma-1 and kappa constant region modules (IgG1, kappa); made in HEK293E cells
B2: HE ™ ATN-2 (antibody, IgG1, V domains shown)
VH: EVQLVQSGPEVVKTGASVKISCKASGYSFTSYYMHWVKQAHGQGLEWIGEINPYNGGASYNQKIKGRATFTVDTSTRTAYMEFSSLRSEDTAVYYCARSIYGHSVLDYWGQGTLVTVSS
VL: DVVMTQSPLSLSVTIGEPASISCRSSQSLLDSDGKTYLNWLLQKPGQSPQRLIYLVSKRDSGVPDRFSGSGSGTDFTLKISRVEAEDVGVYYCWQGTHFPLTFGQGTKLEIK
notes: Human gamma-1 and kappa constant region modules (IgG1, kappa); made in HEK293E cells
B3: HE ™ ATN-3 (antibody, IgG1, V domains shown)
VH: EVQLVQSGPEVKKTGASVKISCKASGYSFTSYYMHWVRQAHGQGLEWIGEINPYNGGASYNQKIQGRATFTVDTSTSTAYMEFSSLRSEDTAVYYCARSIYGHSVLDYWGQGTLVTVSS
VL: DVVMTQSPLSLSVTIGEPASISCRSSQSLLDSDGKTYLNWLLQKPGQSPKRLIYLVSKRDSGVPDRFSGSGSGTDFTLKISRVEAEDVGVYYCWQGTHFPLTFGQGTKLEIK
notes: as for B2
B4: HE ™ ATN-4 (renamed MNPR-101) (antibody, human IgG1, kappa, V domains shown)
VH: EVQLVQSGPEVKKTGASVKISCKASGYSFTSYYMHWVRQAHGQGLEWIGEINPYNGGASYNQKIQGRATFTVDTSTSTAYMEFSSLRSEDTAVYYCARSIYGHSVLDYWGQGTLVTVSS
VL: DVVMTQSPLSLSVTIGEPASISCRSSQSLLDSDGKTYLNWLLQKPGQSPQRLIYLVSKRDSGVPDRFSGSGSGTDFTLKISRVEAEDVGVYYCWQGTHFPLTFGQGTKLEIKR
notes: IgG1 kappa; In the Biacore assay the transiently expressed (HEK293E), unconjugated antibody was used; also called mAb MNPR-101; humanized mAb MNPR-101

Biological target: soluble uPAR (suPAR) (UniProt Q03405)
Assay: SPR (Biacore 2000), capture format

binding, binds:
B1
B2
B3
B4
